Data reported in US20210290727A1 (UNIVERSITY OF MARYLAND BALTIMORE, published 2021).
Results are given in words; binding and its absence hold for the method and conditions named. For some assays here: Binding seen in cells or lysates may run through a third protein. Some entries that bind do so weakly or less than the wild type.

Amino acid sequences for entries named in this document (tags omitted).
UniProt Q8N122: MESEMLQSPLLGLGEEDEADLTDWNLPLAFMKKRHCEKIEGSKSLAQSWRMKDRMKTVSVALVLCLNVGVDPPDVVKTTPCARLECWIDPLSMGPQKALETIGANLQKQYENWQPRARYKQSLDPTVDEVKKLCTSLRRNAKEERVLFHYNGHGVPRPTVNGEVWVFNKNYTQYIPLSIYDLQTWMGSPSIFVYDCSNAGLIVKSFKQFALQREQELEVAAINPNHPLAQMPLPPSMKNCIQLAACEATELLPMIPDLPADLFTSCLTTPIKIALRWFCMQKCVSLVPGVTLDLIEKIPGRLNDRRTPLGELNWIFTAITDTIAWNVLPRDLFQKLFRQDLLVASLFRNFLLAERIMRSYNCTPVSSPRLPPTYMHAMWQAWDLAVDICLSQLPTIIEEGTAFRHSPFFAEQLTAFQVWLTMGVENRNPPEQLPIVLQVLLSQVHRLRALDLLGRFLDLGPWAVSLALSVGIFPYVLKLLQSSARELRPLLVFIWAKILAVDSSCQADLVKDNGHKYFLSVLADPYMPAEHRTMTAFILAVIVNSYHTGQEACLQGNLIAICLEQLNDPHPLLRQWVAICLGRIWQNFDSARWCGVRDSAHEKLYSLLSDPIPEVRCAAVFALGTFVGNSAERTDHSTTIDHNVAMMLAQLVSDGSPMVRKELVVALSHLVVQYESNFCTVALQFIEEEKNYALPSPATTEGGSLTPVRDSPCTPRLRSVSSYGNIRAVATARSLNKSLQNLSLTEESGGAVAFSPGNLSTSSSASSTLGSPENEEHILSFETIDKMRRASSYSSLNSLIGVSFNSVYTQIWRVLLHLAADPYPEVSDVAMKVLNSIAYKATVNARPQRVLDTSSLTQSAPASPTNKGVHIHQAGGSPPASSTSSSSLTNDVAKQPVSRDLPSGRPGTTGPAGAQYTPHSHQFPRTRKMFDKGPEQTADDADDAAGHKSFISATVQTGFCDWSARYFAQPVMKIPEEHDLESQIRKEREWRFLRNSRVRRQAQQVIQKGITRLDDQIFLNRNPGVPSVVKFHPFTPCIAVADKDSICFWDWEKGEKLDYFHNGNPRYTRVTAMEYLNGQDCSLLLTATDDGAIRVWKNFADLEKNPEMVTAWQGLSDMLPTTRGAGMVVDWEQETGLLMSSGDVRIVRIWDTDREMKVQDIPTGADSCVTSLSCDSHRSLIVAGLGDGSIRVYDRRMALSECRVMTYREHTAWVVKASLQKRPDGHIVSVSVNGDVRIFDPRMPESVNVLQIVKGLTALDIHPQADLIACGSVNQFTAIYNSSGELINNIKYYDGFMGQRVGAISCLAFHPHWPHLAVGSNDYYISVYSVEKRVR

What was measured:
HA-mCherry-Raptor [1] = biological target: HA-mCherry-Raptor (UniProt Q8N122); assay: co-IP from HEK293 lysates, immunoblot
[2] = biological target: HA-GST-Rheb (WT) loaded with GDP (UniProt Q15382); assay: pull-down: HA-GST-Rheb on glutathione beads loaded with GDP, tdTomato-CIB2 lysate added, immunoblot
[3] = biological target: HA-GST-Rheb (WT) loaded with GDP (UniProt Q15382); assay: pull-down: HA-GST-Rheb on GST beads loaded with GDP, incubated with tdTomato-CIB2 lysate, immunoblot
[4] = biological target: HA-GST-Rheb (WT) loaded with GTPγS (UniProt Q15382); assay: pull-down: HA-GST-Rheb on GST beads loaded with GTPγS, incubated with tdTomato-CIB2 lysate, immunoblot
[5] = biological target: HA-GST-Rheb (WT) loaded with GTPγS (UniProt Q15382); assay: pull-down: HA-GST-Rheb on glutathione beads loaded with GTPγS, tdTomato-CIB2 lysate added, immunoblot
[6] = biological target: HA-GST-Rheb (WT) loaded with GDP (UniProt Q15382); assay: summary sentence of Example 1 (pull-down with nucleotide-loaded Rheb)
HA-mCherry-Raptor [7] = biological target: HA-mCherry-Raptor (UniProt Q8N122); assay: summary sentence of Example 1 (NanoSPD and co-IP)
HA-mCherry-Raptor [8] = biological target: HA-mCherry-Raptor (UniProt Q8N122); assay: NanoSPD (nanoTRAP) filopodia co-accumulation in COS-7 cells

binding (HA-mCherry-Raptor [1]) | binding [2] | binding [3] | binding [4] | binding [5] | binding [6] | Binder | binding (HA-mCherry-Raptor [7]) | binding (HA-mCherry-Raptor [8])
binds | binds | binds | binds | binds | binds | tdTomato-CIB2 (protein, not shown: large carriers) MGNKQTIFTEEQLDNYQDCTFFNKKDILKLHARFYELAPNLVPMDYRKSPIVHVPMSLIIQMPELRENPFKERIVEAFSEDGEGNLTFNDFVDMFSVLCESAPRELKANYAFKIYDFNTDNFICKEDLEMTLARLTKSELEEDEVVLVCDKVIEEADLDGDGKLGFADFEDMIAKAPDFLSTFHIRI |  | 
 |  |  |  |  |  | CIB2-eGFP (other, Expressed in COS-7 cells as bait of the NanoSPD (nanoTRAP) assay; also called hCIB2-eGFP; GFP-hCIB2; not shown: eGFP tag) MGNKQTIFTEEQLDNYQDCTFFNKKDILKLHSRFYELAPNLVPMDYRKSPIVHVPMSLIIQMPELRENPFKERIVAAFSEDGEGNLTFNDFVDMFSVLCESAPRELKANYAFKIYDFNTDNFICKEDLELTLARLTKSELDEEEVVLVCDKVIEEADLDGDGKLGFADFEDMIAKAPDFLSTFHIRI | binds | binds
